Data set [1] in a line: Lipophilicity, log D of compound at pH 7.4. The settings on record: buffer.
A further data set is filed under the species Homo sapiens. The experiment in a line: Selectivity ratio of IC50 for sPLA2-2A (unknown origin) to IC50 for sPLA2-10 (unknown origin).

As a reminder, the logD is the decadic logarithm of the distribution of all forms, ionised or not, between an organic phase and buffer at a given pH. Read a low logD as lower lipophilicity. For the compound `NC(=O)c1cc2ccc(OC(F)(F)F)cc2n1-c1cccc(CCC(=O)O)c1`, the logD in data set [1] was 1.2. Also, in the data set filed under Homo sapiens, the Ratio IC50 was 12.

Values taken from ChEMBL document CHEMBL4196112, “Design of Selective sPLA2-X Inhibitor (-)-2-{2-[Carbamoyl-6-(trifluoromethoxy)-1H-indol-1-yl]pyridine-2-yl}propanoic Acid” (ACS Med Chem Lett, 2018).
